Some of the results follow. Further columns of the screen follow, without active or inactive calls. Most of these compounds were active or inconclusive in the main read-out, so they are no random draw. Words in brackets tell the shape of the fitted curve; partial curves, single points and poor fits give uncertain potencies.
Assay: qHTS Assay for Lipid Storage Modulators in Drosophila S3 Cells;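 as to cell number change: cells counted by Cell Tracker Red CMTPX staining in the red channel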
Settings: BODIPY lipid droplet fluorescence, 18-24 h; for cell number change: measured here: cell count max response, cells fed with added oleic acid
In short: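 Laser-scanning cytometry quantifies lipid droplet accumulation (500–530 nm total intensity; droplet/cell object ratio) in oleic acid-fed (400 uM added) Drosophila S3 cells treated with a concentration series. 20 uM Triacsin C defined 100% inhibition.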

[1] = measured here: cell number channel AC50, cells fed with added oleic acid
[2] = measured here: lipid fluorescence (Fed channel) AC50, cells fed with added oleic acid

SMILES | cell number change | AC50 [1] | AC50 [2]
COC(=O)c1cc2ccccc2c(=O)s1 | 148% | 4.61 µM [rising, full curve] | 3.26 µM [rising, partial curve]
N#CCn1cnc2sc(-c3ccccc3)cc2c1=O | 0.102% | – | –
O=C(Cn1c(=O)c2cccn2c2ccccc21)Nc1ccc(F)cc1F | -11.8% | – | 29.1 µM [falling, single point]
Cc1ccc(-c2csc(NC(=O)c3c(C)noc3C)n2)cc1 | 1.09% | – | –
COCCn1c(SCC(=O)NCC2CCCO2)nc2c(c1=O)SC(C)C2 (configuration not stated) | -2.16% | 6.51 µM [falling, single point] | 0.731 µM [falling, full curve]
COc1ccc(-n2nnnc2-c2nc3ccccc3s2)cc1 | 12.3% | – | 1.84 µM [rising, partial curve]
COc1ccc(N(CC(=O)NCCC2=CCCCC2)S(=O)(=O)c2ccc(C)cc2)cc1 | 0.955% | – | –
COC(=O)c1cn(Cc2ccc(C(F)(F)F)cc2)cc(F)c1=O | – | 0.517 µM [rising, single point] | 0.731 µM [rising, single point]
CC1(c2ccccc2)ON(c2ccccc2C(F)(F)F)C1=O (configuration not stated) | -72.7% | 18.4 µM [falling, partial curve] | 20.6 µM [falling, partial curve]
CCCSc1nc(C)c2cc(C)cc(C)c2n1 | 10.1% | – | 2.31 µM [falling, single point]
CCc1nnc(NS(=O)(=O)c2ccc(NC(=O)c3cccc(Cl)c3)cc2)s1 | -4.33% | 2.06 µM [falling, partial curve] | 0.82 µM [falling, single point]
COc1ccccc1-c1nnc(NC(=O)C2=COCCO2)o1 | -66.7% | 2.06 µM [falling, full curve] | –
CC(=O)Oc1ccc2c(c1)C(=O)c1ccccc1C2=O | -27% | – | –
Cc1nc2c(oc3ccccc32)c(=O)o1 | 10.9% | – | –
O=C(CN1C(=O)c2cccnc2Oc2ccc(Cl)cc21)NCCCc1ccccc1 | 20.1% | – | 29.1 µM [falling, single point]
CCN(CC)C(=O)Cn1nc(C)c2ccccc2c1=O | – | – | 0.651 µM [falling, single point]
CCCCNC(=S)NNC(=O)C12CC3CC(CC(C3)C1)C2 | -17.1% | – | 23.1 µM [falling, partial curve, poor fit]
CCOC(=O)c1cnc2ccc(C)cc2c1Sc1ccccc1C(=O)OC | -10.6% | 0.184 µM [falling, full curve, poor fit] | 1.64 µM [falling, partial curve]
O=C(Cc1ccc(Cl)cc1)Nc1ccc(-c2cc3ccccc3oc2=O)c(Cl)c1 | 11.8% | – | 0.291 µM [rising, full curve, poor fit]
CC1CCN(C(=S)NC(=O)c2cccs2)CC1 | -10.8% | 0.461 µM [falling, partial curve, poor fit] | –
CC(=O)N[C@@H](C)C(=O)OC(C)C(=O)Nc1cccc([N+](=O)[O-])c1 (some centres not stated) | 4.88% | – | –

In the list so far, these have two or more sulfur atoms.
SMILES | cell number change | AC50 [1] | AC50 [2]
COCCn1c(SCC(=O)NCC2CCCO2)nc2c(c1=O)SC(C)C2 (configuration not stated) | -2.16% | 6.51 µM [falling, single point] | 0.731 µM [falling, full curve]
CCc1nnc(NS(=O)(=O)c2ccc(NC(=O)c3cccc(Cl)c3)cc2)s1 | -4.33% | 2.06 µM [falling, partial curve] | 0.82 µM [falling, single point]
CC1CCN(C(=S)NC(=O)c2cccs2)CC1 | -10.8% | 0.461 µM [falling, partial curve, poor fit] | –

Next part.

SMILES | cell number change | AC50 [1] | AC50 [2]
CC(C)(C)N=C1SCC(C)(/C=N/O)S1 (configuration not stated) | -21.8% | – | 0.206 µM [falling, full curve, poor fit]
Oc1ccc(C[C@H]2CNCCN2CC2CCCCC2)cc1 | 22.1% | – | 29.1 µM [rising, single point]
Cc1cc(NC(=O)C(C)SCC(=O)OCC(=O)Nc2c(C)cccc2C(C)C)no1 (configuration not stated) | 4.96% | – | 3.66 µM [falling, partial curve, poor fit]
COCCNC(=S)N1CCN(c2nc(-c3ccc(Cl)cc3)cs2)CC1 | 10.7% | – | 29.1 µM [falling, single point]
CCOc1ccc(S(=O)(=O)N2CCCC(C(=O)NCCN3CCOCC3)C2)cc1Cl (configuration not stated) | 1.32% | – | –
S=C(NCc1ccc(Cl)cc1Cl)Nc1ccccc1 | – | 0.517 µM [rising, single point] | 29.1 µM [falling, single point]
Cc1ccc(NC(=S)NCc2cccn2C)cc1 | 2.37% | – | –
O=C1CCCN1CCC1CCN(C(=O)Nc2ccccc2)CC1 | – | – | 6.51 µM [falling, single point]
Cc1ccc(C(=O)N/C(=C\c2ccc(-c3ccc(Cl)cc3)o2)C(=O)NCCCN(C)C)cc1 | -24.5% | 2.06 µM [falling, full curve, poor fit] | 1.64 µM [falling, partial curve, poor fit]
O=S(=O)(NCCCN1CCOCC1)c1ccc(F)c(Cl)c1 | -46.7% | 0.651 µM [falling, full curve] | 0.517 µM [falling, full curve]
COC(=O)c1cc(NC(=O)C2CC(=O)NC(=NCc3ccc(OC)cc3)S2)cc(C(=O)OC)c1 (configuration not stated) | 5.13% | – | 29.1 µM [rising, single point]
Cc1ccc(C)c2[nH]c(=O)c(CCNC(=O)c3cccs3)cc12 | 25.7% | 0.0326 µM [rising, full curve, poor fit] | 6.51 µM [rising, single point]
CCOc1ccc(/C(C)=N\NC(=O)Cc2ccccc2)cc1 | 15.1% | – | 29.1 µM [falling, single point]
Cc1nnsc1C(=O)NC1CCCc2c1cnn2-c1ccc(C(C)(C)C)cc1 (configuration not stated) | -68.3% | 7.31 µM [falling, partial curve] | 4.61 µM [falling, full curve]
O=C(OCc1c(F)cccc1Cl)c1cccnc1Cl | 15.4% | 0.82 µM [rising, single point] | –
S=c1[nH]nc(C2COc3ccccc3O2)o1 (configuration not stated) | 27.1% | 3.26 µM [rising, full curve, poor fit] | –
COc1ccc(CCNC(=O)CSc2ccc(-c3cccs3)nn2)cc1OC | -19.4% | – | 23.1 µM [falling, single point]
CCOc1ccccc1OCC(=O)OCC(=O)Nc1ncc(Cl)cc1Cl | 10.3% | – | –
CN1CCN(Cc2ccc(-c3ccc(Cl)cc3)o2)CC1 | -1.36% | – | 25.9 µM [falling, partial curve]
Cc1c(NS(C)(=O)=O)c(=O)n(-c2ccccc2)n1C | -39.2% | 16.4 µM [falling, single point] | 29.1 µM [falling, single point]
O=C(c1cc(C(=O)N2CCCC2)cc([N+](=O)[O-])c1)N1CCCC1 | 9.21% | – | 18.4 µM [falling, single point]

SMILES | cell number change | AC50 [1] | AC50 [2]
CCOC(=O)c1ccc(S(=O)(=O)N2CCN(C)CC2)cc1 | 43.2% | 20.6 µM [rising, single point] | 18.4 µM [rising, single point]
N#Cc1ccc(OCCOCCNC2CCCC2)cc1 | 9.2% | – | –
Cc1ccc(C)c(N(CC(=O)NC2CCCCC2)C(=O)CNC(=O)c2ccco2)c1 | 22.1% | – | –
CC(=O)Nc1cccc(Nc2nc(-c3cccs3)nc3ccccc23)c1 | 20.2% | – | 5.8 µM [falling, full curve]
CN(C(=O)c1ccc(Oc2ccc([N+](=O)[O-])cc2)cc1)C1CCCCC1 | -48.3% | 18.4 µM [falling, single point] | –
C=CCOc1ccc(C(c2c(C(=O)O)[nH]c3ccccc23)c2c(C(=O)O)[nH]c3ccccc23)cc1 | -41.4% | 0.206 µM [falling, partial curve] | –
O=[N+]([O-])c1cccc(NN=Nc2ccccc2)c1 | -33.3% | 29.1 µM [falling, single point] | –
CCOC(=O)c1c(C)[nH]c(C(=O)Nc2ccc(C)c(Cl)c2)c1C | -16.8% | 1.46 µM [rising, partial curve] | 1.64 µM [rising, partial curve]
Cc1ccccc1/C=N/NC(=O)c1ccc(-n2cnnn2)cc1 | 43.1% | 18.4 µM [rising, single point] | 1.03 µM [rising, full curve]
O=C(COC(=O)C1CCCN1C(=O)c1cccs1)c1ccccc1 (configuration not stated) | -4.83% | – | 0.651 µM [rising, partial curve, poor fit]
Cc1ccc(NC(=O)CN(c2ccc(C)cc2)S(=O)(=O)c2cccc3nonc23)cc1 | -0.119% | – | 1.16 µM [rising, full curve]
COc1cccc(CNC(=O)c2cc(C)nc3ccccc23)c1 | 14.2% | – | 16.4 µM [rising, single point]
CCCn1c(SCC(=O)NC2CCCC2)nnc1C(C)C | 23.8% | – | 11.6 µM [rising, partial curve]
CC1(C)C2CCC1(CS(=O)(=O)NCCc1c[nH]c3ccccc13)C(=O)C2 (configuration not stated) | 4.76% | – | 29.1 µM [rising, partial curve]
CCOC(=O)C1CCN(Cc2cc(=O)n3c(-c4ccccc4)csc3n2)CC1 | -24.1% | – | 29.1 µM [falling, single point]
Cc1ccc(Nc2nnc(SCc3cc(=O)n4cc(C)ccc4n3)s2)cc1 | 17.7% | 0.82 µM [rising, partial curve] | 0.116 µM [rising, full curve]
O=C(NNC(=O)C12CC3CC(CC(C3)C1)C2)c1ccccn1 | -18.6% | – | 29.1 µM [falling, single point]
O=C(CSc1nnc(-c2cccnc2)n1-c1ccccc1)Nc1ccccn1 | 10.5% | – | 2.06 µM [rising, partial curve]
CCOc1ccccc1NC(=O)C(OC(=O)c1cnccn1)c1ccccc1 (configuration not stated) | – | – | 0.58 µM [rising, single point]

Source: PubChem BioAssay AID2685 (National Center for Advancing Translational Sciences (NCATS), 2010)
